From the supplement of paper PMC7661543
Differences between knockout arms are mostly noise.

Test system: SKBR3
Assay: relative cell number vs DMSO control (72 h) (% of DMSO); higher = less growth inhibition (more cells)
Method: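 QMAP-Seq: a pool of 5 breast cancer cell lines (ZR-75-1, SKBR3, HCC-38, MDA-MB-231, BT-20), each carrying 12 doxycycline-inducible Cas9 sgRNA perturbations (11 knockouts plus non-targeting sgNT), was treated with compounds for 72 h at four 10-fold doses (10 nM-10 uM or 1 nM-1 uM range). Barcodes were amplified and sequenced, and cell number was interpolated from 293T spike-in standard curves. The result is expressed as % of the median of DMSO wells. Two biological replicates.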

N.N.[Cl][Pt][Cl] [Cisplatin]
Conditions	relative cell number
sgRNA knockout: sgATF3, 10 nM	109
sgRNA knockout: sgATF3, 100 nM	92.2
sgRNA knockout: sgATF3, 1000 nM	105
sgRNA knockout: sgATF3, 10000 nM	114
sgRNA knockout: sgATF4, 10 nM	97.2
sgRNA knockout: sgATF4, 100 nM	82.8
sgRNA knockout: sgATF4, 1000 nM	97.3
sgRNA knockout: sgATF4, 10000 nM	93
sgRNA knockout: sgATF6, 10 nM	83.11
sgRNA knockout: sgATF6, 100 nM	89.5
sgRNA knockout: sgATF6, 1000 nM	90.8
sgRNA knockout: sgATF6, 10000 nM	91
sgRNA knockout: sgATG7, 10 nM	102
sgRNA knockout: sgATG7, 100 nM	112
sgRNA knockout: sgATG7, 1000 nM	95.6
sgRNA knockout: sgATG7, 10000 nM	117
sgRNA knockout: sgERN1, 10 nM	98.9
sgRNA knockout: sgERN1, 100 nM	97.6
sgRNA knockout: sgERN1, 1000 nM	107
sgRNA knockout: sgERN1, 10000 nM	104
sgRNA knockout: sgHSF1, 10 nM	95.5
sgRNA knockout: sgHSF1, 100 nM	96.6
sgRNA knockout: sgHSF1, 1000 nM	93.6
sgRNA knockout: sgHSF1, 10000 nM	92.6
sgRNA knockout: sgHSF2, 10 nM	107
sgRNA knockout: sgHSF2, 100 nM	76.4
sgRNA knockout: sgHSF2, 1000 nM	97.8
sgRNA knockout: sgHSF2, 10000 nM	110
sgRNA knockout: sgKEAP1, 10 nM	109
sgRNA knockout: sgKEAP1, 100 nM	76.6
sgRNA knockout: sgKEAP1, 1000 nM	92
sgRNA knockout: sgKEAP1, 10000 nM	87.4
sgRNA knockout: sgNFE2L2, 10 nM	119
sgRNA knockout: sgNFE2L2, 100 nM	69.3
sgRNA knockout: sgNFE2L2, 1000 nM	112
sgRNA knockout: sgNFE2L2, 10000 nM	98.1
sgRNA knockout: sgSLC35F2, 10 nM	111
sgRNA knockout: sgSLC35F2, 100 nM	85.4
sgRNA knockout: sgSLC35F2, 1000 nM	123.83
sgRNA knockout: sgSLC35F2, 10000 nM	110
sgRNA knockout: sgXBP1, 10 nM	112
sgRNA knockout: sgXBP1, 100 nM	94.8
sgRNA knockout: sgXBP1, 1000 nM	123
sgRNA knockout: sgXBP1, 10000 nM	104

CCOC(=O)c1ccc(N2NC(=O)C(=Cc3ccc([N+](=O)[O-])o3)C2=O)cc1 [PYR41]
Conditions	relative cell number
sgRNA knockout: sgATF3, 10 nM	104
sgRNA knockout: sgATF3, 100 nM	79.1
sgRNA knockout: sgATF3, 1000 nM	104
sgRNA knockout: sgATF3, 10000 nM	105
sgRNA knockout: sgATF4, 10 nM	97.013
sgRNA knockout: sgATF4, 100 nM	89.4
sgRNA knockout: sgATF4, 1000 nM	117
sgRNA knockout: sgATF4, 10000 nM	88.1
sgRNA knockout: sgATF6, 10 nM	98.9
sgRNA knockout: sgATF6, 100 nM	95.9
sgRNA knockout: sgATF6, 1000 nM	106
sgRNA knockout: sgATF6, 10000 nM	90.4
sgRNA knockout: sgATG7, 10 nM	111
sgRNA knockout: sgATG7, 100 nM	89.5
sgRNA knockout: sgATG7, 1000 nM	124
sgRNA knockout: sgATG7, 10000 nM	97.3
sgRNA knockout: sgERN1, 10 nM	99.5
sgRNA knockout: sgERN1, 100 nM	85
sgRNA knockout: sgERN1, 1000 nM	113
sgRNA knockout: sgERN1, 10000 nM	106
sgRNA knockout: sgHSF1, 10 nM	87.6
sgRNA knockout: sgHSF1, 100 nM	91.8
sgRNA knockout: sgHSF1, 1000 nM	112
sgRNA knockout: sgHSF1, 10000 nM	90.55
sgRNA knockout: sgHSF2, 10 nM	99.2
sgRNA knockout: sgHSF2, 100 nM	103
sgRNA knockout: sgHSF2, 1000 nM	110
sgRNA knockout: sgHSF2, 10000 nM	102
sgRNA knockout: sgKEAP1, 10 nM	92.6
sgRNA knockout: sgKEAP1, 100 nM	85.6
sgRNA knockout: sgKEAP1, 1000 nM	99.6
sgRNA knockout: sgKEAP1, 10000 nM	101
sgRNA knockout: sgNFE2L2, 10 nM	105
sgRNA knockout: sgNFE2L2, 100 nM	74.6
sgRNA knockout: sgNFE2L2, 1000 nM	87.9
sgRNA knockout: sgNFE2L2, 10000 nM	86.7
sgRNA knockout: sgSLC35F2, 10 nM	86
sgRNA knockout: sgSLC35F2, 100 nM	73.8
sgRNA knockout: sgSLC35F2, 1000 nM	108
sgRNA knockout: sgSLC35F2, 10000 nM	88.5
sgRNA knockout: sgXBP1, 10 nM	106
sgRNA knockout: sgXBP1, 100 nM	102
sgRNA knockout: sgXBP1, 1000 nM	140
sgRNA knockout: sgXBP1, 10000 nM	102
